# Laboratory results published in patent publication US20090305241, “DNA demethylases and uses thereof” (REGENTS OF THE UNIVERSITY OF CALIFORNIA, published 2009).
# Columns and labels:
# [1] = biological target: T1, DME (MBP-Δ537DME, wild-type glycosylase domain) (UniProt Q8LK56); experiment: enzyme reaction in vitro; settings: purified recombinant protein
# T1 sequence: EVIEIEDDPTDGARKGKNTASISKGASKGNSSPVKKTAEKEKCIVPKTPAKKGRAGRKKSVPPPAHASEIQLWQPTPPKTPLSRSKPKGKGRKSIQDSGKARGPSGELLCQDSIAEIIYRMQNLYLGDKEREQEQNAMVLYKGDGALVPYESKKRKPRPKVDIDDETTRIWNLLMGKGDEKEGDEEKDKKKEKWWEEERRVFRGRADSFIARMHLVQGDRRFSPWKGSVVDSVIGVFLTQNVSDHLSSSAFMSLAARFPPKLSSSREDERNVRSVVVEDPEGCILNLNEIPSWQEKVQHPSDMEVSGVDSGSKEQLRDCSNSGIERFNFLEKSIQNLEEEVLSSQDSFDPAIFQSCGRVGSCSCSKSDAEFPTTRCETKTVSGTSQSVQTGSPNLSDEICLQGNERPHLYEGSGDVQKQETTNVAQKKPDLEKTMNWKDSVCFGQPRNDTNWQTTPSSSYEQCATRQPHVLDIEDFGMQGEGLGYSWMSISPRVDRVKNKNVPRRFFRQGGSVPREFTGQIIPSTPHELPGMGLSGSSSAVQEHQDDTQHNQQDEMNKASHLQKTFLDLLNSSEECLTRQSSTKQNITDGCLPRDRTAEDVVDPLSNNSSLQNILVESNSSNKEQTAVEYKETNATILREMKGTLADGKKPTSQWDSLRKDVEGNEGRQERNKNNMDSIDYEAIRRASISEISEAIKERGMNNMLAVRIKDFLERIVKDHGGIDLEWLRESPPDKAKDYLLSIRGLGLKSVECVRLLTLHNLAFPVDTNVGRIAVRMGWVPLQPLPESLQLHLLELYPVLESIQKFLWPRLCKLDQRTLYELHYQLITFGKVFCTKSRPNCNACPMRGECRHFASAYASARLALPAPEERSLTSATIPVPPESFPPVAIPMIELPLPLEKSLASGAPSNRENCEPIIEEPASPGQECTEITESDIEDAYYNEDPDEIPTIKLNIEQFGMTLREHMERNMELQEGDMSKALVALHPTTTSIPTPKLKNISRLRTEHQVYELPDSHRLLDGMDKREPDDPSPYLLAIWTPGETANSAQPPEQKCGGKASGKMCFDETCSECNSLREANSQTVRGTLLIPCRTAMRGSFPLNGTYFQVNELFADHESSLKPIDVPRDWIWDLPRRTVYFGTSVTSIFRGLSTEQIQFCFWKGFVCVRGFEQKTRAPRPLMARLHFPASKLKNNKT
# [2] = biological target: T1, DME (MBP-Δ537DME, wild-type glycosylase domain); experiment: binding assay; settings: no covalent trapping with NaBH4; purified recombinant protein; label: 5'-32P top strand
sequence,measurement,setting,value
CTATACCTCCTCAACTCCGGTCACCGTCTCCGGCG (double strand) [fully methylated (MEA-1.6F18meC / MEA-1.6R17meC)],activity on this sequence,"[1]; 5mC at top position 18 and bottom position 19 [top 18 = 5mC, bottom 17 (duplex position 19) = 5mC], less active than on hemimethylated, label: 5'-32P bottom strand, letters built from the parent sequence and the stated change",less active
CTATACCTCCTCAACTCCGGTCACCGTCTCCGGCG (double strand) [hemimethylated bottom strand (MEA-1.6F / MEA-1.6R17meC)],activity on this sequence,"[1]; 5mC in bottom strand at duplex position 19 [bottom 17 (duplex position 19) = 5mC], reference rate, label: 5'-32P bottom strand, letters built from the parent sequence and the stated change",active
CTATACCTCCTCAACTCCGGTCACCGTCTCCGGCG (double strand) [hemimethylated meCpG (MEA-1.6F18meC / MEA-1.6R)],activity on this sequence,"[1]; 5mC at position 18 of top strand [top 18 (5mC)], 5mC excision, beta- and delta-elimination products, 250 nM DME, 13.3 nM DNA, 0.1 mM EDTA, 37 C 1 hr, label: 5'-32P top strand, letters built from the parent sequence and the stated change, variant of unmethylated CpG (MEA-1.6F / MEA-1.6R)",active
CTATACCTCCTCAACTCCGGTCACCGTCTCCGGCG (double strand) [meCpNpG (MEA-1.6F17meC / MEA-1.6R)],activity on this sequence,"[1]; 5mC at position 17 of top strand [top 17 = 5mC], CpNpG context, label: 5'-32P top strand, letters built from the parent sequence and the stated change, variant of unmethylated CpG (MEA-1.6F / MEA-1.6R)",active
CTATACCTCCTCAACTCCGGTCACCGTCTCCGGCG (double strand) [meCpNpN (MEA-1.6F22meC / MEA-1.6R)],activity on this sequence,"[1]; 5mC at position 22 of top strand [top 22 = 5mC], CpNpN context, label: 5'-32P top strand, letters built from the parent sequence and the stated change, variant of unmethylated CpG (MEA-1.6F / MEA-1.6R)",active
CTATACCTCCTCAACTCCGGTCACCGTCTCCGGCG (double strand) [unmethylated CpG (MEA-1.6F / MEA-1.6R)],binding result,[2],no binding
same,activity on this sequence,"[1]; no lyase activity, label: 5'-32P top strand",not active
CTATACCTCCTCAACTCTGGTCACCGTCTCCGGCG / CGCCGGAGACGGTGACCGGAGTTGAGGAGGTATAG [T/G mismatch (MEA-1.6F18T / MEA-1.6R)],activity on this sequence,"[1]; T/G activity somewhat less than on meC/G, label: 5'-32P top strand, variant of unmethylated CpG (MEA-1.6F / MEA-1.6R)",less active

# A negative result means that nothing was seen under these conditions. Tags and fusion partners may be left off the protein sequences shown. For some assays here: Weaker means in comparison with the reference protein, sequence or condition of that experiment.
